Record: PubChem BioAssay AID504774 (Drosophila RNAi Screening Center, 2011)

Assay: 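Fly genes whose loss alters survival after alkylation damage to DNA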 (primary screen)
Cell system: Drosophila Kc167 cells
Reagents: long dsRNA against Drosophila genes, about 0.25 µg dsRNA per well
Time to read-out: about 6 days: 3 days knock-down, then 3 days with or without MMS
Challenge: methyl methanesulphonate 0.004% (w/v) for 3 days after knock-down
Read-out: 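Viability in wells given MMS, read as ATP luminescence, normalised by quantiles plate by plate and averaged across replicates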
Scale: mean viability with MMS and viability with MMS: higher = more surviving cells after MMS
The screen tested about 23,000 reagents; below is a random part of those with a known target gene and a result. 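Values are quantile-normalised luminescence on an arbitrary scale; higher means more cells surviving MMS.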 The numbers tell different reagents against one gene apart. Not all columns of the deposit are shown.

18w | mean viability with MMS: 3.63e6; viability with MMS, replicate 1: 4.20e6
CG9662 | mean viability with MMS: 3.53e6; viability with MMS, replicate 1: 3.86e6
CG15725 | mean viability with MMS: 3.50e6; viability with MMS, replicate 1: 3.97e6
CG6424 | mean viability with MMS: 3.54e6; viability with MMS, replicate 1: 4.00e6
row #1 | mean viability with MMS: 3.18e6; viability with MMS, replicate 1: 3.70e6
row #2 | mean viability with MMS: 3.48e6; viability with MMS, replicate 1: 4.05e6
Taf5 | mean viability with MMS: 3.18e6; viability with MMS, replicate 1: 3.64e6
heix | mean viability with MMS: 3.46e6; viability with MMS, replicate 1: 3.65e6
Amph | mean viability with MMS: 3.52e6; viability with MMS, replicate 1: 3.95e6
Taz #1 | mean viability with MMS: 3.90e6; viability with MMS, replicate 1: 4.04e6
Taz #2 | mean viability with MMS: 3.46e6; viability with MMS, replicate 1: 3.95e6
CG9776 | mean viability with MMS: 3.43e6; viability with MMS, replicate 1: 3.86e6
Rbp9 #1 | mean viability with MMS: 3.60e6; viability with MMS, replicate 1: 4.18e6
Rbp9 #2 | mean viability with MMS: 3.47e6; viability with MMS, replicate 1: 4.00e6
CG31809 | mean viability with MMS: 3.52e6; viability with MMS, replicate 1: 4.01e6
CG7255 | mean viability with MMS: 3.68e6; viability with MMS, replicate 1: 4.20e6
CG14301 | mean viability with MMS: 3.57e6; viability with MMS, replicate 1: 3.93e6
CCT5 | mean viability with MMS: 3.35e6; viability with MMS, replicate 1: 3.83e6
CG9672 | mean viability with MMS: 3.67e6; viability with MMS, replicate 1: 4.33e6
CG5767 | mean viability with MMS: 3.63e6; viability with MMS, replicate 1: 4.13e6
Cp15 | mean viability with MMS: 3.73e6; viability with MMS, replicate 1: 4.22e6
Gbp2 | mean viability with MMS: 3.58e6; viability with MMS, replicate 1: 4.07e6
Arc42 #1 | mean viability with MMS: 3.52e6; viability with MMS, replicate 1: 3.98e6
Arc42 #2 | mean viability with MMS: 3.53e6; viability with MMS, replicate 1: 3.91e6

3 neighbouring records already listed, for reference:
CG6424 | mean viability with MMS: 3.54e6; viability with MMS, replicate 1: 4.00e6
row #1 | mean viability with MMS: 3.18e6; viability with MMS, replicate 1: 3.70e6
row #2 | mean viability with MMS: 3.48e6; viability with MMS, replicate 1: 4.05e6
